# The list shows a part of the results. These are further read-outs of the screen, such as a control signal, another cell line or another target. No call is given for them. The list favours compounds with an active or inconclusive main result. Words in brackets tell the shape of the fitted curve; partial curves, single points and poor fits give uncertain potencies.
# Test: IkB Signaling
# Conditions: ABC-DLBCL IkBa-CBG/CBR dual luciferase ratio (green luciferase fused to IkBa over red control in OCI-Ly3 lymphoma cells), 4 h
# Method in brief: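 Luminescence ratio of IκBα-fused green versus native red beetle luciferase in OCI-Ly3 cells, 4 h post-doxycycline with compound; red signal alone, scaled from basal (0%) to zero light (-100%), flagged nonspecific or cytotoxic effects.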
# [1] = measured here: control luc red channel unless noted
smiles,measurement,setting,value
CCOc1ccc(CN2C(=O)c3ccccc3Sc3ccc(C(=O)OC)cc32)cc1,AC50,[1],"12.6 µM [falling, partial curve]"
O=S(=O)(Nn1cnnc1)c1ccccc1Cl,AC50,[1],"1.58 µM [falling, partial curve]"
COc1ccc(CNC(=O)c2ccc3c(c2)N(Cc2ccccc2C)C(=O)c2ccccc2S3=O)cc1 (configuration not stated),AC50,[1],"6.31 µM [falling, partial curve]"
Nc1ccccc1N,AC50,[1],"15.8 µM [falling, partial curve]"
COc1ccccc1-n1c(-c2cccnc2)n[nH]c1=S,AC50,[1],"5.01 µM [falling, full curve, poor fit]"
COc1ccc(Cl)cc1NC(=O)CCN1C(=O)c2ccccc2Sc2ncccc21,AC50,[1],"12.6 µM [falling, partial curve]"
CCC(=O)Nc1nc2ccccc2n1Cc1ccccc1,AC50,[1],"31.6 µM [rising, partial curve] [measured here: IkB-luc green channel]"
CC(C)C(=O)N1c2nc(C(C)C)nn2C2(CCCCC2)[C@@H]2CCCC[C@@H]21,AC50,[1],"31.6 µM [falling, single point]"
Cc1cc(C)c2c(=O)cc(CSc3nnc(-c4ccccc4)n3C)[nH]c2c1,AC50,[1],"39.8 µM [falling, single point]"
Cc1ccc(Nc2nc3ccccc3c3nnc(C)n23)cc1Cl,AC50,[1],"39.8 µM [falling, single point]"
Cc1ccc(CNc2ccc(O)cc2)cc1,AC50,[1],"15.8 µM [falling, partial curve]"
CCn1c(SCC(=O)c2cc(C)n(CC3CCCO3)c2C)nc2ccccc21 (configuration not stated),AC50,[1],"12.6 µM [falling, partial curve]"
O=C(Nc1nc2c(s1)CCCC2)c1cccs1,AC50,[1],"3.98 µM [falling, full curve]"
COC(=O)c1ccccc1NC(=O)Nc1cccs1,AC50,[1],"20 µM [falling, partial curve]"
CCCC(CCC)C(=O)Nc1cccc(-c2nc3cccnc3s2)c1,AC50,[1],"10 µM [falling, partial curve]"
CC(=O)Oc1cc2c(C(=O)NCCCN3CCOCC3)c(C)oc2c2ccccc12,AC50,[1],"12.6 µM [falling, partial curve]"
CC(=O)Nc1ccc(NS(=O)(=O)c2ccc3[nH]c4c(c3c2)CCCCC4)cc1,AC50,[1],"5.01 µM [falling, single point]"
COc1ccc(CCN2C(=O)N(c3ccc(F)cc3)C(=O)C2CC(=O)Nc2ccc(OC)cc2)cc1 (configuration not stated),AC50,[1],"25.1 µM [falling, single point]"
NC1=CC(=O)c2cccc3cccc1c23,AC50,[1],"39.8 µM [rising, single point] [measured here: IkB-luc green channel]"
CCCCC1C(=O)N(c2ccccc2)N(c2ccccc2)C1=O,AC50,measured here: IkB-luc green channel,"25.1 µM [rising, partial curve]"
same,AC50,measured here: control luc red channel,"15.8 µM [rising, partial curve]"
Cc1ccc(-n2nc3c(N4CCC(C(=O)NCCc5ccccc5C)CC4)nnc(C)c3c2C)cc1,AC50,[1],"1.58 µM [falling, partial curve]"
CN(C)c1cc2c(cc1NC(=O)c1ccc(F)cc1)n(C)c(=O)n2C,AC50,[1],"3.16 µM [rising, partial curve]"
CCOc1ccc(CNC(=O)c2ccc(NC(=O)N3CCSc4ncccc43)cc2)cc1OC,AC50,[1],"3.98 µM [falling, partial curve]"
CCc1ccc(-c2cc(C)no2)cc1S(=O)(=O)Nc1ccc(C)cn1,AC50,[1],"0.158 µM [rising, full curve]"
Cc1cccc(-c2nnn3c2nc(NCc2ccccc2)c2ccccc23)c1,AC50,[1],"0.631 µM [falling, full curve]"
Cc1cc2c(cc(C(=O)OCC(=O)NCc3cccs3)n2C(C)C)o1,AC50,[1],"39.8 µM [falling, single point]"
CC(=O)Nc1nc2ccccc2n1CCOc1ccccc1,AC50,[1],"39.8 µM [rising, single point] [measured here: IkB-luc green channel]"
CNC(=O)C1CCN(Cc2cc3ccccc3n2Cc2cccc(C)c2)CC1,AC50,[1],"12.6 µM [falling, partial curve]"
CCOc1ccc(CCNC(=O)c2ccc(CS(=O)(=O)c3ccccc3C)o2)cc1OCC,AC50,[1],"15.8 µM [falling, single point]"
CSCCC(NS(=O)(=O)c1cccs1)C(=O)Nc1ccc(C)c(Cl)c1 (configuration not stated),AC50,[1],"31.6 µM [falling, single point]"
COC(=O)c1ccc(Cn2c(SCC(=O)NCc3ccccc3)nc3ccccc32)cc1,AC50,[1],"25.1 µM [falling, partial curve]"
CCc1ccccc1Nc1ncnc2c1cnn2-c1ccc(Cl)cc1,AC50,[1],"10 µM [falling, partial curve]"
CC(=O)c1ccc(NC(=O)CSc2nnc(NC(=O)Nc3ccccc3)s2)cc1,AC50,[1],"0.1 µM [rising, full curve]"
COc1ccc(OC)c(NC(=O)Cc2c(C)n(C(=O)c3ccc(Cl)cc3)c3ccc(OC)cc23)c1,AC50,[1],"6.31 µM [falling, partial curve]"
CC(=O)c1cccc(NC(=O)CN2C(=O)c3cccnc3Sc3ccccc32)c1,AC50,[1],"15.8 µM [falling, partial curve]"
CCc1ccccc1NC(=O)c1sc2nc3n(c(=O)c2c1C)CCC3,AC50,[1],"7.94 µM [falling, partial curve]"
CCOc1ccccc1NC(=O)c1ccc2c(Cl)c3c(nc2c1)CCCC3,AC50,[1],"0.631 µM [falling, full curve]"
COc1cccc(CNc2nc3c(-c4cccc(C)c4)nnn3c3ccccc23)c1,AC50,[1],"0.398 µM [falling, full curve]"
CCOc1ccc(-c2nnc(SCC(=O)NCCc3ccccc3)nc2-c2ccc(OCC)cc2)cc1,AC50,[1],"0.126 µM [falling, full curve]"
CC(=O)Nc1ccc(NC(=O)CCC(=O)c2ccc(C)cc2)cc1,AC50,[1],"3.98 µM [rising, single point]"
CC(=O)c1cccc(NC(=O)c2c(C)nn(-c3ccc(F)cc3)c2-n2cccc2)c1,AC50,[1],"39.8 µM [falling, single point]"

# Twelve entries from above, with bars between the fields:
smiles | measurement | setting | value
COc1ccc(Cl)cc1NC(=O)CCN1C(=O)c2ccccc2Sc2ncccc21 | AC50 | [1] | 12.6 µM [falling, partial curve]
CC(C)C(=O)N1c2nc(C(C)C)nn2C2(CCCCC2)[C@@H]2CCCC[C@@H]21 | AC50 | [1] | 31.6 µM [falling, single point]
CCn1c(SCC(=O)c2cc(C)n(CC3CCCO3)c2C)nc2ccccc21 (configuration not stated) | AC50 | [1] | 12.6 µM [falling, partial curve]
CCCC(CCC)C(=O)Nc1cccc(-c2nc3cccnc3s2)c1 | AC50 | [1] | 10 µM [falling, partial curve]
NC1=CC(=O)c2cccc3cccc1c23 | AC50 | [1] | 39.8 µM [rising, single point] [measured here: IkB-luc green channel]
CCc1ccc(-c2cc(C)no2)cc1S(=O)(=O)Nc1ccc(C)cn1 | AC50 | [1] | 0.158 µM [rising, full curve]
Cc1cc2c(cc(C(=O)OCC(=O)NCc3cccs3)n2C(C)C)o1 | AC50 | [1] | 39.8 µM [falling, single point]
CCOc1ccc(CCNC(=O)c2ccc(CS(=O)(=O)c3ccccc3C)o2)cc1OCC | AC50 | [1] | 15.8 µM [falling, single point]
COC(=O)c1ccc(Cn2c(SCC(=O)NCc3ccccc3)nc3ccccc32)cc1 | AC50 | [1] | 25.1 µM [falling, partial curve]
CCOc1ccccc1NC(=O)c1ccc2c(Cl)c3c(nc2c1)CCCC3 | AC50 | [1] | 0.631 µM [falling, full curve]
CCOc1ccc(-c2nnc(SCC(=O)NCCc3ccccc3)nc2-c2ccc(OCC)cc2)cc1 | AC50 | [1] | 0.126 µM [falling, full curve]
CC(=O)c1cccc(NC(=O)c2c(C)nn(-c3ccc(F)cc3)c2-n2cccc2)c1 | AC50 | [1] | 39.8 µM [falling, single point]

# — PubChem BioAssay AID445 (National Center for Advancing Translational Sciences (NCATS), 2006)
